Source: article PMC12691677

Target: T1, NifH (bacterial two-hybrid fusion) (K. oxytoca) (UniProt P00458)
T1 sequence: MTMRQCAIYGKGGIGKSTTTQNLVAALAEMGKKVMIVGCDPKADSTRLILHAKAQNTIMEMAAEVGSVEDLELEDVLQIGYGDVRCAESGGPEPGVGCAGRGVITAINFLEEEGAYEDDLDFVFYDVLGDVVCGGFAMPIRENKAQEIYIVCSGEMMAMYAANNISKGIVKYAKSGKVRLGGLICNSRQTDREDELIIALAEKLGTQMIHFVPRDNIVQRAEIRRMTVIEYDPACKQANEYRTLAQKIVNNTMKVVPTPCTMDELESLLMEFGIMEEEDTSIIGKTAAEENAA
Experiment: two-hybrid; bacterial two-hybrid (BTH), fusions to the T18 and T25 fragments of B. pertussis adenylate cyclase (pUT18C, pKT25) in E. coli BTH101; preculture in LB with 200 uM IPTG for 48 h, spotted on LB with X-gal, 30°C, 12 h; blue colour

| binding | Substance |
| --- | --- |
| binds | NifMn (N-terminal truncated NifM, bacterial two-hybrid fusion) (K. oxytoca) (domain or fragment) |
| no binding | NifMc (C-terminal truncated NifM, bacterial two-hybrid fusion) (K. oxytoca) (domain or fragment) |

These are yes or no findings as the source states them, for the method shown. A result given as binding can be weak or reduced; the word gives no strength. Tags and fused reporters may be left off the sequences shown.
